Paper PMC4694826
These are yes or no findings as the source states them, for the method shown. In cells and extracts the contact can be indirect. Some entries that bind do so weakly or less than the wild type. One block for each molecule: values may come before it.

By UniProt entry, the sequences of proteins in these tests, tags left out.
UniProt P25963: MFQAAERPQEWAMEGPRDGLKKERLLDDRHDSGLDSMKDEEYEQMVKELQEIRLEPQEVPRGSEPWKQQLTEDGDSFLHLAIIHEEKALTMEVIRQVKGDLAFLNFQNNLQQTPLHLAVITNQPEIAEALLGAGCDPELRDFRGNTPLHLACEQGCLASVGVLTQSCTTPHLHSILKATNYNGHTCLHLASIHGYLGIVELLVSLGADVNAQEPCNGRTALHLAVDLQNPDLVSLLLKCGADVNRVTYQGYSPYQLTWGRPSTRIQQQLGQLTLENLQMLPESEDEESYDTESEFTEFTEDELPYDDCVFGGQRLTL

Experiments:
[1] = biological target: endogenous IκBα (primary CML bone marrow cells) (human (endogenous in primary CML bone marrow cells)) (UniProt P25963); experiment: co-IP; primary CML bone marrow cells; immunoprecipitation with IκBα antibody, western blot; endogenous proteins
[2] = biological target: myc-tag-IκBα (UniProt P25963); experiment: co-IP; HEK293T transfected cells, in the presence of BCR-ABL; immunoprecipitation with IκBα antibody, western blot
[3] = biological target: myc-tag-IκBα (UniProt P25963); experiment: co-IP; HEK293T cells transfected with the indicated plasmids; lysate (150 mM NaCl, 1 mM EDTA, 50 mM HEPES pH 7.5, 1% Triton X-100, 10% glycerol) immunoprecipitated with myc-tag antibody (IκBα) overnight at 4°C, Protein A/G agarose, western blot

binding [1]: binds
Molecule: endogenous p53 (primary CML bone marrow cells) (from UniProt P04637 1-393)

binding [2]: binds
Molecule: p53 (HEK293T transfected cells) (from UniProt P04637 1-393)

binding [3]: binds
B1: BCR (protein, UniProt P11274 1-1271)
chain: MVDPVGFAEAWKAQFPDSEPPRMELRSVGDIEQELERCKASIRRLEQEVNQERFRMIYLQTLLAKEKKSYDRQRWGFRRAAQAPDGASEPRASASRPQPAPADGADPPPAEEPEARPDGEGSPGKARPGTARRPGAAASGERDDRGPPASVAALRSNFERIRKGHGQPGADAEKPFYVNVEFHHERGLVKVNDKEVSDRISSLGSQAMQMERKKSQHGAGSSVGDASRPPYRGRSSESSCGVDGDYEDAELNPRFLKDNLIDANGGSRPPWPPLEYQPYQSIYVGGMMEGEGKGPLLRSQSTSEQEKRLTWPRRSYSPRSFEDCGGGYTPDCSSNENLTSSEEDFSSGQSSRVSPSPTTYRMFRDKSRSPSQNSQQSFDSSSPPTPQCHKRHRHCPVVVSEATIVGVRKTGQIWPNDGEGAFHGDADGSFGTPPGYGCAADRAEEQRRHQDGLPYIDDSPSSSPHLSSKGRGSRDALVSGALESTKASELDLEKGLEMRKWVLSGILASEETYLSHLEALLLPMKPLKAAATTSQPVLTSQQIETIFFKVPELYEIHKEFYDGLFPRVQQWSHQQRVGDLFQKLASQLGVYRAFVDNYGVAMEMAEKCCQANAQFAEISENLRARSNKDAKDPTTKNSLETLLYKPVDRVTRSTLVLHDLLKHTPASHPDHPLLQDALRISQNFLSSINEEITPRRQSMTVKKGEHRQLLKDSFMVELVEGARKLRHVFLFTDLLLCTKLKKQSGGKTQQYDCKWYIPLTDLSFQMVDELEAVPNIPLVPDEELDALKIKISQIKNDIQREKRANKGSKATERLKKKLSEQESLLLLMSPSMAFRVHSRNGKSYTFLISSDYERAEWRENIREQQKKCFRSFSLTSVELQMLTNSCVKLQTVHSIPLTINKEDDESPGLYGFLNVIVHSATGFKQSSNLYCTLEVDSFGYFVNKAKTRVYRDTAEPNWNEEFEIELEGSQTLRILCYEKCYNKTKIPKEDGESTDRLMGKGQVQLDPQALQDRDWQRTVIAMNGIEVKLSVKFNSREFSLKRMPSRKQTGVFGVKIAVVTKRERSKVPYIVRQCVEEIERRGMEEVGIYRVSGVATDIQALKAAFDVNNKDVSVMMSEMDVNAIAGTLKLYFRELPEPLFTDEFYPNFAEGIALSDPVAKESCMLNLLLSLPEANLLTFLFLLDHLKRVAEKEAVNKMSLHNLATVFGPTLLRPSEKESKLPANPSQPITMTDSWSLEVMSQVQVLLYFLQLEAIPAPDSKRQSILFSTEV
